In test [1] the target is scUtp10-FTpA (S. cerevisiae) (UniProt P42945). The test can be described thus: affinity purification with mass spectrometry; tandem affinity-purification of FTpA-tagged yeast baits (IgG Sepharose, TEV, Flag agarose); SDS-PAGE, Coomassie, bands identified by mass spectrometry; cells expressing or depleted of Dim2 (GAL::scDIM2, glucose 8 h) or with or without Krr1 degradation (auxin 90 min).

Protein sequences, listed by entry. Tags and fused reporters are not part of them.
UniProt P42945: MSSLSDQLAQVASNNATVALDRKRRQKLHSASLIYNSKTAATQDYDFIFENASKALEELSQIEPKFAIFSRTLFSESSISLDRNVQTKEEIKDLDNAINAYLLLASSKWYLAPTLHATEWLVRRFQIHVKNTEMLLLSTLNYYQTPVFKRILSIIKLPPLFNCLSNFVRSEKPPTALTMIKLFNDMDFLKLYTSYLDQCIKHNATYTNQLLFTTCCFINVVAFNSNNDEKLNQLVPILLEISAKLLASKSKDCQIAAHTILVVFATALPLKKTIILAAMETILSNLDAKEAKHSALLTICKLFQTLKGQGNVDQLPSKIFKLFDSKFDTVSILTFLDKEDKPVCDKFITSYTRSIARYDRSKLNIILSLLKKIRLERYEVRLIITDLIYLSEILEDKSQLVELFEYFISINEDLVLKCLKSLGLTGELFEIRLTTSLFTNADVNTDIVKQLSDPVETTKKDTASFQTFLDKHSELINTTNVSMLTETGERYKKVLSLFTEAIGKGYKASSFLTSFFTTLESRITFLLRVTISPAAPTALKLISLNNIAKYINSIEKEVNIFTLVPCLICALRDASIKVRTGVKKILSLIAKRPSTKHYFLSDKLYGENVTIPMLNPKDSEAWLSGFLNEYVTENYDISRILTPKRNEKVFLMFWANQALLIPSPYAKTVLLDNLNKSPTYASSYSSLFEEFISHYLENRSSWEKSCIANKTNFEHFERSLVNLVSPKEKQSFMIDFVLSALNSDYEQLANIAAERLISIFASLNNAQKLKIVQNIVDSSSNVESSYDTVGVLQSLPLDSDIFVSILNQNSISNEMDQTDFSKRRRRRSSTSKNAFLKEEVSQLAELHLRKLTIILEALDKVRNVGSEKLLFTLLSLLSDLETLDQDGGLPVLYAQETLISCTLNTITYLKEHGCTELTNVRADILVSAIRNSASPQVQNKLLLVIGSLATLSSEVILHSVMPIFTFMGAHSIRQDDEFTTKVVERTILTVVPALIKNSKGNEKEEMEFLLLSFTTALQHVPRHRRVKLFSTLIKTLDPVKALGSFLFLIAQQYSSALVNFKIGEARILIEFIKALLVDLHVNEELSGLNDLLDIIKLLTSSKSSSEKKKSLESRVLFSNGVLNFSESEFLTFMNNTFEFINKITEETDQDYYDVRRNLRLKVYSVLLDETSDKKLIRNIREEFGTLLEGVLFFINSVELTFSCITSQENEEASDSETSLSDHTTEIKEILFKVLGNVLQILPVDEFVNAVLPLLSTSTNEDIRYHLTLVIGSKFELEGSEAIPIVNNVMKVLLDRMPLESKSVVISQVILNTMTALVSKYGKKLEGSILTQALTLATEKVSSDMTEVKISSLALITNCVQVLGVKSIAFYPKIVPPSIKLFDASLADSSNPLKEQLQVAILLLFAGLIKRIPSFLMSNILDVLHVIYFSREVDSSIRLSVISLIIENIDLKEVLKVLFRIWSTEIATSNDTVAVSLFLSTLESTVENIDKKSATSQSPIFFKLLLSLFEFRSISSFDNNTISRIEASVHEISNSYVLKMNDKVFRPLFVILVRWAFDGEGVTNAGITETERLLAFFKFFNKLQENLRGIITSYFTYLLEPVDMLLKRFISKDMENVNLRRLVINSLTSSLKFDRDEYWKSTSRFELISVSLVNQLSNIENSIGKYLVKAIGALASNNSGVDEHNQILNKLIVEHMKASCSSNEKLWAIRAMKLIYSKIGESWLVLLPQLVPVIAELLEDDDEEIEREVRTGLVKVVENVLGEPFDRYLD
UniProt P25586: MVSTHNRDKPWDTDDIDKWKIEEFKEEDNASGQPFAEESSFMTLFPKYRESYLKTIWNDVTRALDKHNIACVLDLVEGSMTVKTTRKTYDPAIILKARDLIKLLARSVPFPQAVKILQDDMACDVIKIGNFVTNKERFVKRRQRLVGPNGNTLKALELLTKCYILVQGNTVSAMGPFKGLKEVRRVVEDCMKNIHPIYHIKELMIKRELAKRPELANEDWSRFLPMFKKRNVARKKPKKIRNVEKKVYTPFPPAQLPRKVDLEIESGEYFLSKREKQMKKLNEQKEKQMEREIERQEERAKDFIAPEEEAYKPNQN
UniProt Q05022: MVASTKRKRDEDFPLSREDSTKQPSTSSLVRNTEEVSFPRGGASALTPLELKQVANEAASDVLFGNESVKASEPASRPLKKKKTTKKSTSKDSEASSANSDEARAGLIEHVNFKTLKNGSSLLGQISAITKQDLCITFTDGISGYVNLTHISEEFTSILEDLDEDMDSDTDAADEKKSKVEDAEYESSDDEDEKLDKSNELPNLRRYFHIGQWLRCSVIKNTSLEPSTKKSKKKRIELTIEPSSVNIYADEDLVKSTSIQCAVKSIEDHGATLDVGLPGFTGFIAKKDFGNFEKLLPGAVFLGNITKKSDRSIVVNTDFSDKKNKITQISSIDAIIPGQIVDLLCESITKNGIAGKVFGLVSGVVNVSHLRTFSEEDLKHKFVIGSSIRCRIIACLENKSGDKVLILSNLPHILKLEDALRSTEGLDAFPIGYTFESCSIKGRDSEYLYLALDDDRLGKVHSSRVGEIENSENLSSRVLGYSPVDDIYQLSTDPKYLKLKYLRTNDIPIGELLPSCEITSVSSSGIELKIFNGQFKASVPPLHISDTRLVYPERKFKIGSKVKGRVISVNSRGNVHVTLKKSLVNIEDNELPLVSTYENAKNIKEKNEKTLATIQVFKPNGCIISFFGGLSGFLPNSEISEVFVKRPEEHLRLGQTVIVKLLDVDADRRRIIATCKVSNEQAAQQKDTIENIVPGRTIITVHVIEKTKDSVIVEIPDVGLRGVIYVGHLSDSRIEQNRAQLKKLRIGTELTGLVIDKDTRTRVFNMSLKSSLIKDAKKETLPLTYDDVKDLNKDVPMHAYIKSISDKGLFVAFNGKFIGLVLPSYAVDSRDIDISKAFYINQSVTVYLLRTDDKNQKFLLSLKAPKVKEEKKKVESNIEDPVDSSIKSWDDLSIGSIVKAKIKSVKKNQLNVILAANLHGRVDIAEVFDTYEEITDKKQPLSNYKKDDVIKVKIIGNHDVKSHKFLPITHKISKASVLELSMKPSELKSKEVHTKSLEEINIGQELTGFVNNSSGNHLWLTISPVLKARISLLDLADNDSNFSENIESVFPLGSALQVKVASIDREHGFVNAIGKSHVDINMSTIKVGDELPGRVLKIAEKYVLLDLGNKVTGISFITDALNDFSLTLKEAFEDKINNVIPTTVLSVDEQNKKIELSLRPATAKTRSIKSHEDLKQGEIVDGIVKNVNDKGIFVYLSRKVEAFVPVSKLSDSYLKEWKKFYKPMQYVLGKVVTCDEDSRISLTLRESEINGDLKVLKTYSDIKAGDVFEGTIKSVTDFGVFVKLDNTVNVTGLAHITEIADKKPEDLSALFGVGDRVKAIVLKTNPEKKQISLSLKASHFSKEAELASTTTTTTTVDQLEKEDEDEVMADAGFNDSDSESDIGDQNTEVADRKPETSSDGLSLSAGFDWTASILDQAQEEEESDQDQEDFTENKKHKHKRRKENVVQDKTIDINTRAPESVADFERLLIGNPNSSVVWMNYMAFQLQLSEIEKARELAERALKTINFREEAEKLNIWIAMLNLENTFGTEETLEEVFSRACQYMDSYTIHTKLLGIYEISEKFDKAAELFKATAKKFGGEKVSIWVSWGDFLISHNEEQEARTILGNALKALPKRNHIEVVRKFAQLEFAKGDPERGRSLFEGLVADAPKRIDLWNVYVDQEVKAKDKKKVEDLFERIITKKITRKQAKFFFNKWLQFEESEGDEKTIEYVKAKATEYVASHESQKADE
UniProt P41819: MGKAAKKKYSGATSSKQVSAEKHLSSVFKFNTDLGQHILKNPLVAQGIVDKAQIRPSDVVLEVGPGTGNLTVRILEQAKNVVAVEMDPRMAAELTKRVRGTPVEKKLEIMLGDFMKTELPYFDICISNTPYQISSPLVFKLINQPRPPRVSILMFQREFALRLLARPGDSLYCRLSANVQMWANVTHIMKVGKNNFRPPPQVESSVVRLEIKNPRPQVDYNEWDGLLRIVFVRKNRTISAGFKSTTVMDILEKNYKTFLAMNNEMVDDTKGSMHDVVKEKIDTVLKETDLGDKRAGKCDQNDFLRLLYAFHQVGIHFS

The target of test [2] is T1, scEnp1-FTpA (S. cerevisiae) (UniProt P38333).
T1 sequence: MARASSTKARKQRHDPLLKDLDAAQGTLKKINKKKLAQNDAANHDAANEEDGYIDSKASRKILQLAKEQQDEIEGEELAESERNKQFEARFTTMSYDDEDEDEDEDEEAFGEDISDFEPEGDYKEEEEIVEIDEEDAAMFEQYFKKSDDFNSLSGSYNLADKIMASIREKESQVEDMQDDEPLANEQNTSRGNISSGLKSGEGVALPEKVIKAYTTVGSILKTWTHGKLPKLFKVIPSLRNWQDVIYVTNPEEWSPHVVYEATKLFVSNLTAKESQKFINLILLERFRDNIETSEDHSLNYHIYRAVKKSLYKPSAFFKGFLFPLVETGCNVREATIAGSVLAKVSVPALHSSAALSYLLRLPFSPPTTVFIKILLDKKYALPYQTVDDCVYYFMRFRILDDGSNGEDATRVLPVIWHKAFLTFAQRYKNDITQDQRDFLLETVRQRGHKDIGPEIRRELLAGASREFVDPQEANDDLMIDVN
The description is as above.

Test [3] deals with scKrr1-FTpA (S. cerevisiae) (UniProt P25586). As to the kind of experiment: affinity purification with mass spectrometry; semi-quantitative mass spectrometry (1D nLC-ESI-MS-MS, MaxQuant iBAQ normalised to the bait) of FTpA eluates from depleted and non-depleted cells.

Our source for the binding values is paper PMC5738357.

Results are given in words; binding and its absence hold for the method and conditions named. In cells and extracts the contact can be indirect. These calls come from enrichment with a bait or labelling near it, and not all partners need be listed.

With Rrp5 (from UniProt Q05022 1-1729), the binding result in test [1] is on record as “binds”.

On to Dim1 (from UniProt P41819 1-318), for which, in test [2], the binding entry was “binds”.

B1: Nop9 (protein, UniProt P47077 1-666)
chain: MGKTKTRGRRHQDKQRKDEFEPSSNSAKEHIQQEESTYNDEAEIKETQPQMFFGVLDREELEYFKQAESTLQLDAFEAPEEKFQFVTSIIEEAKGKELKLVTSQITSKLMERVILECDETQLKDIFQSFNGVFFGLSCHKYASHVLETLFVRSAALVERELLTPSFDNNEKEGPYVTMENMFLFMLNELKPHLKTMMNHQYASHVLRLLILILSSKTLPNSTKANSTLRSKKSKIARKMIDIKDNDDFNKVYQTPESFKSELRDIITTLYKGFTNGAESRSDISQSTITKFREYSVDKVASPVIQLIIQVEGIFDRDRSFWRLVFNTADEKDPKEESFLEYLLSDPVGSHFLENVIGSARLKYVERLYRLYMKDRIVKLAKRDTTGAFVVRALLEHLKEKDVKQILDAVVPELSMLLNSNMDFGTAIINASNKQGGYLRDDVIAQLIQKYYPEKSDAKNILESCLLLSASTLGNTRDDWPTAEERRRSVFLEQLIDYDDKFLNITIDSMLALPEERLIQMCYHGVFSHVVEHVLQTTRVDIIKRKMLLNILSKESVNLACNVYGSHIMDKLWEFTAKLTLYKERIARALVLETEKVKNSIYGRQVWKNWKLELYVRKMWDWKKLIKEQEFEIFPNSKPLQPKPEKHSRERNNSKEGSAFKKQKHYR
With B1, the binding result in test [3] was “binds”.

B2: Utp14 (endogenous, yeast) (protein, UniProt Q04500 1-899)
chain: MAKKKSKSRSKSSRRVLDALQLAEREINGEFDNSSDNDKRHDARRNGTVVNLLKRSKGDTNSDEDDIDSESFEDEELNSDEALGSDDDYDILNSKFSQTIRDKKENANYQEEEDEGGYTSIDEEDLMPLSQVWDMDEKTAQSNGNDDEDASPQLKLQDTDISSESSSSEESESESEDDEEEEDPFDEISEDEEDIELNTITSKLIDETKSKAPKRLDTYGSGEANEYVLPSANAASGASGKLSLTDMMNVIDDRQVIENANLLKGKSSTYEVPLPQRIQQRHDRKAAYEISRQEVSKWNDIVQQNRRADHLIFPLNKPTEHNHASAFTRTQDVPQTELQEKVDQVLQESNLANPEKDSKFEELSTAKMTPEEMRKRTTEMRLMRELMFREERKARRLKKIKSKTYRKIKKKELMKNRELAAVSSDEDNEDHDIARAKERMTLKHKTNSKWAKDMIKHGMTNDAETREEMEEMLRQGERLKAKMLDRNSDDEEDGRVQTLSDVENEEKENIDSEALKSKLGKTGVMNMAFMKNGEAREREANKETLRQLRAVENGDDIKLFESDEEETNGENIQINKGRRIYTPGSLESNKDMNELNDHTRKENKVDESRSLENRLRAKNSGQSKNARTNAEGAIIVEEESDGEPLQDGQNNQQDEEAKDVNPWLANESDEEHTVKKQSSKVNVIDKDSSKNVKAMNKMEKAELKQKKKKKGKSNDDEDLLLTADDSTRLKIVDPYGGSDDEQGDNVFMFKQQDVIAEAFAGDDVVAEFQEEKKRVIDDEDDKEVDTTLPGWGEWAGAGSKPKNKKRKFIKKVKGVVNKDKRRDKNLQNVIINEKVNKKNLKYQSSAVPFPFENREQYERSLRMPIGQEWTSRASHQELIKPRIMTKPGQVIDPLKAPFK
As for B2, the binding entry in test [3] is “binds”.

B3: Mrd1 (protein, UniProt Q06106 1-887)
chain: MSRIIVKGLPVYLTDDNLREHFTKRLRQKHSHQAVNGSGPDLITDVKILRDRNGESRRFGFIGYRNEEDAFDAVEYFNGSFINTSKIEVSMAKSFADPRVPQPMKEKRREALKRFREKEEKLLQEENRKKKKVDENKHSNIDDEIRKNKQLQEFMETMKPSSQVTSWEKVGIDKSIEDEKLKREEEDSSVQGNSLLAHALALKEENNKDEAPNLVIENESDDEYSALNRNRDEDQEDAGEEEKMISISNLKDTDIGLVNDDANSDEKENEKRRNLAQDEKVSDLDWFKQRRVRIKESEAETREKSSSYATEQNESLDTKKEEQPERAVPQKTDEELAIEKINQTGRLFLRNILYTSKEEDFRKLFSPFGELEEVHVALDTRTGQSKGFAYVLFKDSKNAVNAYVELDKQIFQGRLLHILPGEEKKSHRLDEFDLKNMPLKKQKELKRKAAASRQTFSWNSLYMNQDAVLGSVAAKLGLEKSQLIDAENSSSAVKQALAEAHVIGDVRKYFESKGVDLTKFSQLKSTNQRDDKVILVKNFPFGTTREELGEMFLPYGKLERLLMPPAGTIAIVQFRDTTSARAAFTKLSYKRFKDGIIYLERGPKDCFTKPAEADDLINNTSAKEEENPVEVKPSSNDLMEANKDVTEGSSNAHDEDVIDGPTVSIFIKNLNFSTTNQNLTDRFKVFTGFVVAQVKTKPDPKHQGKTLSMGFGFVEFRTKEQANAVIAAMDGTVIDGHKIQLKLSHRQASQSGNTKTKSNKKSGKIIVKNLPFEATRKDVFELFNSFGQLKSVRVPKKFDKSARGFAFVEFLLPKEAENAMDQLHGVHLLGRRLVMQYAEEDAVDAEEEIARMTKKVRKQVATNEMAALRNGGGRKKLDVDDEENEGF
In the case of B3, in test [3], the binding result was “binds”.

B4: Nob1 (endogenous, yeast) (protein, UniProt Q08444 1-459)
chain: MTENQTAHVRALILDATPLITQSYTHYQNYAQSFYTTPTVFQEIKDAQARKNLEIWQSLGTLKLVHPSENSIAKVSTFAKLTGDYSVLSANDLHILALTYELEIKLNNGDWRLRKKPGDALDASKADVGTDGKQKLTEDNKKEEDSESVPKKKNKRRGGKKQKAKREAREAREAENANLELESKAEEHVEEAGSKEQICNDENIKESSDLNEVFEDADDDGDWITPENLTEAIIKDSGEDTTGSLGVEASEEDRHVALNRPENQVALATGDFAVQNVALQMNLNLMNFMSGLKIKRIRNYMLRCHACFKIFPLPKDGKPKHFCASCGGQGTLLRCAVSVDSRTGNVTPHLKSNFQWNNRGNRYSVASPLSKNSQKRYGKKGHVHSKPQENVILREDQKEYEKVIKQEEWTRRHNEKILNNWIGGGSADNYISPFAITGLKQHNVRIGKGRYVNSSKRRS
Consider B4, for which the binding result in test [2] is “binds”.

B5: Rrp12 (protein, UniProt Q12754 1-1228)
chain: MDQDKVAFLLELEDKLAKIRSQVNSKLENQKHIAIILTAVEENIAGQATNDVSKNIVNYIISFMSLLDQAVDPSTHEIKDIQLASSSTYLLDLIFHYSPKVLLRSKFSEILTKIAPCITAEKANAPLIRAAIGCLESLLIAQDAQAWNNTYDLNVTPKRGLQGILELSLDVRPKVRKRALDAVHAVLLNPPVAPTAEHVAAVFVADFCDKQLAGILNDLSNLSNKQLKAQKTKEDINASVMRSLRLITSVVSTGQWPSSQIEPLCDVLLGVTKSSEQYLVSASFECFESMFKTMAETTISSGLAENKYLRVLDTIFALKPSNVDTLLTKSWIAVVIKGMSTYATHQPLKALRKIPGVFHIMCTYLASETPEVYQAASQCLISILSESVKDDLLLYTPSVDEKVFKNVDEIISQIAKTFIDFLSIRYSHCSREILKILVAAFNKFRYRSNPHFLKSLKIVDTWRVNEEQFMDLRNEIELVIGASISAMGPEMILAEAPLNLDNPSSERPGRAWLLPLIRDYTKNANLATFQNELAPYIKSFQSKFDKVPEESIQLRVFQTIVDQIWSTLPRFCELPMDLRESFTDEFASELSSLLYSEVELRTTICHALKVLAESNVSYAEESSSHNVLLLQRFPISEAQKNIEYLSTKSTNLLAVLFNVYTQTTPNARSYILETIDQYLKITSKEDLEKTFNNVCGLLKNSMNEESSGNVNKEKKKPQLTATLLDLIICMITYLPVSSYSALFSMFSLTVNSADALIQKRAYRIITKLSELKSGSTAVAQFISDIENVMVDSASSVQTSAKAARLTAIKTIVELLPLDHLDFIVRTVAEVILSTKDVNEKSRETAFDTLICMGRKMNEPNGIIKLFQIPGYDPTTPDQSSSISEFFKIISAGLIGESQHMVSSSITGYACLVFEFKNELDSGILMDIYDTIELYLTSNSREIVKSAIGFTKVCVLGLPEELMRPKVPELLLKLLRWSHEHTGHFKAKVKHIIERLIRRFGYDYIEANFPEEDRRLLTNIRKMRNRNKRKDEEVTTGVSDVAATKGSRFMSAFDEAVYGSDEENDNGSDQEENVAGGKMKNGAKQFIVESGDNPLDLLDSQTLAHISSTRPKKFNKNQNRARFNDDAFNFDSEGKLVVKGQPKPSTNVDDPLSAVTSGINAYLEAVKSGPVRGQRNKLKFRKNGKDSDEFGDDDDGEKDSRLMRGRVNQGNKIGKHNKKGPKFKSRKKL
As for B5, the binding result in test [2] is listed as “binds”.

B6: Tsr1 (protein, UniProt Q07381 1-788)
chain: MAGHSHRSSLKNGHKSYKSKHASKGALKRLYKGKVEKEPVGTGKPDKQVSKLQRKNKAKQLRAQRILDSIENRKLFEGKNGAAKIITIVPLVNDLDPLDILYKLLKCADDEGIMVQEVDSKRIFNVHIKKFKSNLKIIIPDMTNFLNILDCAKVADFVVFGLSGVQEVDEEFGEQIIRALELQGIASYIGVISNLSAVHEKEKFQLDVKQSLESYFKHFFPSEERVYNLEKNSDALNVLRTLCQRLPRSINWRDNRGYVVADFVDFVETSPDSGDLVIEGTVRGIGFNANRLVHIPDFGDFQLNKIEKISESSQKRKIIKEKATDSLSLELDLQTVFESNMNRDTLDEYAPEGTEDWSDYDEDFEYDGLTTARYDDHGFLPGREQTSKKAAVPKGTSDYQAKWYLDDVIDANEEEEAEQTNGKDETMMEIDDEMMVEQDNEEVAGDEEYDIEDNEGFEELSPEEEERQLREFRDMEKEDREFPDEIELEPSESAIERLKRYRGLKNLYNCDWQVDEKDPSSPAEWKRLLRIGNYKNTKNRIIKETKNEAQAIAGDRIRMFIRFPKFLLEKIQDPKQLLFAVYGLLLHEHKNAVVNFSLQRWEQYDKPVPSQEPIVVQYGVRRYTIQPLFSQGSNSPNNVHKYERFLHPDTVSVATCIAPVDFTQSPAIFFKPSPTDAKNIELIGHGTFLNADHSRILAKRAILTGHPFRFHKTVVTVRYMFFRPEDVEWFKSIPLFTKSGRSGFIKESLGTHGYFKATFDGKLSAQDVVAMSLYKRMWPMPSLPWNGM
As to B6, the binding result in test [2] is on record as “binds”.
